Results are given in words; binding and its absence hold for the method and conditions named. Binding seen in cells or lysates may run through a third protein. These calls come from enrichment with a bait or labelling near it, and not all partners need be listed.

Sequences of proteins named here, by UniProt entry; tags and fusion partners are left off. Residues count along the entry.
UniProt Q8K212, residues 114-961: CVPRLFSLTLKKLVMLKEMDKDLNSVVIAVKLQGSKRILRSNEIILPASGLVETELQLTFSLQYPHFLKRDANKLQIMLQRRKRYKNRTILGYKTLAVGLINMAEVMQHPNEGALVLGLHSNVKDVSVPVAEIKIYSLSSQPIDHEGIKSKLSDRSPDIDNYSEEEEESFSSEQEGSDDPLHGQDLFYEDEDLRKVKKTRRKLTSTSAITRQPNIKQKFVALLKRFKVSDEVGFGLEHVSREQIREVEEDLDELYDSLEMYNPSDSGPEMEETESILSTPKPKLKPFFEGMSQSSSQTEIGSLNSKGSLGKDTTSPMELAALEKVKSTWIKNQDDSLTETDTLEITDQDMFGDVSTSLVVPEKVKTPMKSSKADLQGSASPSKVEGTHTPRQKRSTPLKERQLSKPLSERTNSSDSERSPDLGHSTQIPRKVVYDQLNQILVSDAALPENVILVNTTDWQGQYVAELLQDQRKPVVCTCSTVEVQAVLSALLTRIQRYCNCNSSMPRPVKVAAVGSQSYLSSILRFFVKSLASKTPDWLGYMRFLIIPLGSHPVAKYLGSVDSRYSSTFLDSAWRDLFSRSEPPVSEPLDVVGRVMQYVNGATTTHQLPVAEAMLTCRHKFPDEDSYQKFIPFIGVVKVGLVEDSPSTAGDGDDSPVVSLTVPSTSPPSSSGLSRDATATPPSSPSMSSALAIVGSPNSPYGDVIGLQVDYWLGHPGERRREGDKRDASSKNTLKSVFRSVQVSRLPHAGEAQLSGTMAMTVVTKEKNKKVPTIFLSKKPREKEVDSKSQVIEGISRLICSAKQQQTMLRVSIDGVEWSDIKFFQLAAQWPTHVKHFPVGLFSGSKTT

In the test the target is FLAG-Pacs1 (bead-immobilized bait of the co-IP mass spectrometry) (mouse) (UniProt Q8K212). As to the kind of experiment: co-IP mass spectrometry: bead-immobilized FLAG-Pacs1 incubated with murine B cell cytosolic extract, LC-MS/MS.

B1: WD repeat domain protein 37 (Wdr37), endogenous, from cytosolic extract of wild-type murine B cells (protein, mouse, UniProt Q8CBE3 1-496, looked up)
chain: MPTESGSCSTARQAKQKRKSHSLSIRRTNSSEQERTGLPREMLEGQDSKLPSSVRSTLLELFGQIEREFENLYIENLELRREIDTLNERLAGEGQAIDGAELSKGQLKTKASHSTSQLSQKLKTTYKASTSKIVSSFKTTTSRAICQLVKEYIGHRDGIWDVSVTRTQPIVLGTASADHTALLWSIETGKCLVKYAGHVGSVNSIKFHPSEQLALTASGDQTAHIWRYVVQLPTPQPVADTSQQISGEDEIECSDKDEPDIDGDVSSDCPTVRVPLTSLKSHQGVVIAADWLVGGKQVVTASWDRTANLYDVETSELVHSLTGHDQELTHCCTHPTQRLVVTSSRDTTFRLWDFRDPSIHSVNVFQGHTDTVTSAVFTVGDNVVSGSDDRTVKVWDLKNMRSPIATIRTDSAINRINVCVGQKIIALPHDNRQVRLFDMSGVRLARLPRSSRQGHRRMVCCSAWSEDHPICNLFTCGFDRQAIGWNINIPALLQEK
On to B1, for which the binding result was “binds”.

These data come from US20240043838A1.
